PubChem BioAssay AID1259424, University of Nebraska Medical Center – 2018

Purpose: 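Seek colon cancer survival genes behaving like KSR1, using a six-gene signature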 (primary screen)
System: human HCT116 colon cancer cells
Reagents: siRNA pool against human genes, 50 nM
Detection: 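Six signature mRNAs by branched-DNA multiplex assay, scaled to two housekeeping genes and non-targeting median, log2; matched to mean KSR1 knockdown profile by Pearson correlation and euclidean distance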
Direction: mean correlation with KSR1 profile: higher = expression change more like KSR1 knockdown
This is a random part of about 14,000 deposited reagents. 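Higher correlation or smaller distance means closer resemblance to KSR1 loss; control wells, including KSR1 knockdowns, recur on many plates.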 Further read-outs or replicates are left out here. Not stated in the record: the time to read-out.

Gene | mean correlation with KSR1 profile
HYAL3 | -0.464
TREM2 | 0.107
LCAT | -0.216
SF3B1 | -0.621
SRRT | 0.134
CSPG4 | 0.429
PRXL2A | 0.228
CHGA | -0.198
IDH2 | 0.675
BEX1 | 0.406
NEB | -0.678
CLXN | 0.824
HTR5A | 0.845
ATP6V1G2 | -0.158
FAM184A | 0.714
FEZ2 | -0.219
EXD2 | -0.923
STK33 | 0.278
CLCA1 | 0.112
KCNE4 | -0.164
IQSEC2 | -0.135
TEX11 | -0.0285
GYS2 | 0.481
TG | 0.334
PCBP2 | 0.166
ENO1 | -0.0504
IFT38 | -0.346
SLC27A5 | -0.208
TP53I3 | -0.113
FAM120B | 0.0788
ALPI | -0.489
CRYBA2 | 0.338
MYH13 | 0.301
ARRB1 | 0.626
ALDH1B1 | -0.505
GAPDHS | -0.212
SLC7A5P1 | 0.665
ACTR3 | 0.283
MAPK7 | 0.797
JAG1 | -0.29
APH1B | 0.606
TNFRSF21 | -0.696
NDUFB9 | 0.438
GPBP1 | 0.341
GABRA1 | -0.336
C3orf36 | -0.359
MTHFSD | 0.676
TMPRSS2 | -0.304
COL10A1 | 0.208
AGO2 | 0.192
